From paper doi:10.1101/326512 come the findings set out here.

By UniProt entry, the sequences of proteins in these tests, tags left out. Residues count along the entry.
UniProt P11021, residues 19-654: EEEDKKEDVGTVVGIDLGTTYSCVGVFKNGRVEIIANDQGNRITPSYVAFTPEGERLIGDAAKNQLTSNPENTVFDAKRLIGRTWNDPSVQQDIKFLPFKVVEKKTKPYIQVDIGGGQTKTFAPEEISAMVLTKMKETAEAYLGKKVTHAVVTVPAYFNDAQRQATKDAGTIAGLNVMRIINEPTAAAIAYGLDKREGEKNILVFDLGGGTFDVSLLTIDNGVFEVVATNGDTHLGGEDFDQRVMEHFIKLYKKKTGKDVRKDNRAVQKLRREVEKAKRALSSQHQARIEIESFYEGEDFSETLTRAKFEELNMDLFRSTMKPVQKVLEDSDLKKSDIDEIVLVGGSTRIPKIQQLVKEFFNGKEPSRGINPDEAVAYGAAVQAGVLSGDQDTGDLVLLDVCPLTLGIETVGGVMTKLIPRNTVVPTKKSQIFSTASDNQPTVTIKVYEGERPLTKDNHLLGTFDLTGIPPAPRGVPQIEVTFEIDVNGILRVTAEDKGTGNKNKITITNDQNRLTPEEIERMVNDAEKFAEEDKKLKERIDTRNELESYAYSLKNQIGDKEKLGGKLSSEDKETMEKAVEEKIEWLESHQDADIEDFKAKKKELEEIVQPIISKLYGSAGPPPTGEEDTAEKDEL
UniProt P04202, residues 30-390: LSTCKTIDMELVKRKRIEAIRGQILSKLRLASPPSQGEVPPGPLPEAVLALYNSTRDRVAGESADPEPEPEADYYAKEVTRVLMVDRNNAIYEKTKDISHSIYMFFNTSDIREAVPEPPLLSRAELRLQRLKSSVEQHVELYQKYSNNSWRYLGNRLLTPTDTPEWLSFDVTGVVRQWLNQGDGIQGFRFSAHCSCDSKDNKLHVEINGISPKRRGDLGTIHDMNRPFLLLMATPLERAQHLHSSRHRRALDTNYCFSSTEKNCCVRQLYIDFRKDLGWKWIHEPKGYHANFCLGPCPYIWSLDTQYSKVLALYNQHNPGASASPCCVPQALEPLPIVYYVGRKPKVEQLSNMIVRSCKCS
UniProt Q9NYU2, residues 43-1555: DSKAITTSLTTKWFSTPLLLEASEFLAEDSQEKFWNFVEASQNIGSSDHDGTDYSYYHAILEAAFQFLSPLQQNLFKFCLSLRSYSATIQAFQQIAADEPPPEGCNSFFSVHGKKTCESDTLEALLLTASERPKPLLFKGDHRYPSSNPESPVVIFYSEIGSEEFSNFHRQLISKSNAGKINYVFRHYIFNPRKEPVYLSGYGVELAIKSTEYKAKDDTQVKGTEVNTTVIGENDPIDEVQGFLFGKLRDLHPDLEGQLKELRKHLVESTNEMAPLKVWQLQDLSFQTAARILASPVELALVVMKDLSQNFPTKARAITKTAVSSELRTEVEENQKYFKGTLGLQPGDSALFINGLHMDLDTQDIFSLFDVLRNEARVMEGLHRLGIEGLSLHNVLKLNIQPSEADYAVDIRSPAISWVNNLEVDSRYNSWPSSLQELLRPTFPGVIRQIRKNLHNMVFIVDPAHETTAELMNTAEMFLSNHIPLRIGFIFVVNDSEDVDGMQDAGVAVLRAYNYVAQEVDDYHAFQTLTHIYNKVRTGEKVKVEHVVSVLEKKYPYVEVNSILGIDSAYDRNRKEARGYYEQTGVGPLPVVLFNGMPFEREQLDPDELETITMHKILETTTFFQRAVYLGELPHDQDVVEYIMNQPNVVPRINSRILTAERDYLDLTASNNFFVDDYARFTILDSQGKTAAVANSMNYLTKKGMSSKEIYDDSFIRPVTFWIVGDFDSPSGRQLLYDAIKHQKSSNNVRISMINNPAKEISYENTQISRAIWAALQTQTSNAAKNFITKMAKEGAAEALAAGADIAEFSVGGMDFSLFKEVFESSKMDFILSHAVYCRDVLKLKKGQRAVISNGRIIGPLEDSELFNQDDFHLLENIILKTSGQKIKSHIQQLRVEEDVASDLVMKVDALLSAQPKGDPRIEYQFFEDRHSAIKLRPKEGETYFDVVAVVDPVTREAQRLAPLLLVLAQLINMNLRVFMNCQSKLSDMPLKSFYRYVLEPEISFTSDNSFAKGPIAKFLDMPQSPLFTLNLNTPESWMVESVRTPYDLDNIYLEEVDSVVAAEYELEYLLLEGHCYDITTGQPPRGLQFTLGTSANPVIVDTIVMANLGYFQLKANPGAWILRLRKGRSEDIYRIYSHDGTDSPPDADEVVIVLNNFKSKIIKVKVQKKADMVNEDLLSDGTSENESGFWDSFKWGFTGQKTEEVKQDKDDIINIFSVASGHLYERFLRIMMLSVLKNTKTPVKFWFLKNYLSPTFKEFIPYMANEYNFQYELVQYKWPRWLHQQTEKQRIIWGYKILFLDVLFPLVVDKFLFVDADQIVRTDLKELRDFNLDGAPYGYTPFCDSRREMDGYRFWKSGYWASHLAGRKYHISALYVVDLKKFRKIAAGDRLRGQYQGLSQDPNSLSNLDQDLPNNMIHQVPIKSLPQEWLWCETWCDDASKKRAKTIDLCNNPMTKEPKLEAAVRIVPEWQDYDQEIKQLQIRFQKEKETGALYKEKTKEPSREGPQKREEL
UniProt Q9UNE7: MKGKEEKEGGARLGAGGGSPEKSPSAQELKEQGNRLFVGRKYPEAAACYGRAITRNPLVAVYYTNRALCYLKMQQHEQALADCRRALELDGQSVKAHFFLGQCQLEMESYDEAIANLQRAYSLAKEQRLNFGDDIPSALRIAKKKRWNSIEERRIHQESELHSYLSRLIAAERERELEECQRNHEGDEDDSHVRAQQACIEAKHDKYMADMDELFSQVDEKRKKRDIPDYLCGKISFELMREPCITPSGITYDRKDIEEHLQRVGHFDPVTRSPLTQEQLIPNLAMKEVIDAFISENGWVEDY

Read-outs that look alike come from different tables or passages of the source. These are yes or no findings as the source states them, for the method shown. Binding seen in cells or lysates may run through a third protein. Some binding calls cover weakened binding; strength is not graded here. Tags and fused reporters may be left off the sequences shown.

Holding throughout (assay): co-IP
Test [1] has as its target T1, NRROS^nFlag overexpressed in HEK293T cells (mouse) (UniProt Q8BMT4).
T1 sequence: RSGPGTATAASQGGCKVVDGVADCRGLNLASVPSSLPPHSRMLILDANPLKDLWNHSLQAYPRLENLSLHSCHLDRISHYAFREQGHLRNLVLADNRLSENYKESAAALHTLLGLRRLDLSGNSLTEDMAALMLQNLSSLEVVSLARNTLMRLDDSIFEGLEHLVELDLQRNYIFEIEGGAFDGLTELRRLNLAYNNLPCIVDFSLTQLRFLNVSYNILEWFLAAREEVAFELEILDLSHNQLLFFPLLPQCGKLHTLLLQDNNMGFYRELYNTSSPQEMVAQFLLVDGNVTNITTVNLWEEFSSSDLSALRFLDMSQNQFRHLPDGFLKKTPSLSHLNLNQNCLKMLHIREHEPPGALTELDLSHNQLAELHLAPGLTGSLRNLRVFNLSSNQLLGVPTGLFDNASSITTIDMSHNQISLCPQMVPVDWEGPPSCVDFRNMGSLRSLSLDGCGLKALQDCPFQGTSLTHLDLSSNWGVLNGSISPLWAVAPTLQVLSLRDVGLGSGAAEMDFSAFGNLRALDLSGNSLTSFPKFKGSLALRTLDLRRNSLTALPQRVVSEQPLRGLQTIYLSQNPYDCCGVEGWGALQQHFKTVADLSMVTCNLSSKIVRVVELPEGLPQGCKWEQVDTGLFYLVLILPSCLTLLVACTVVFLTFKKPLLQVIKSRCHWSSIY

For test [2], the target named is T2, NRROS^LAP (C-terminus LAP-tagged NRROS), stable in RAW 264.7 cells (mouse) (UniProt Q8BMT4).
T2 sequence: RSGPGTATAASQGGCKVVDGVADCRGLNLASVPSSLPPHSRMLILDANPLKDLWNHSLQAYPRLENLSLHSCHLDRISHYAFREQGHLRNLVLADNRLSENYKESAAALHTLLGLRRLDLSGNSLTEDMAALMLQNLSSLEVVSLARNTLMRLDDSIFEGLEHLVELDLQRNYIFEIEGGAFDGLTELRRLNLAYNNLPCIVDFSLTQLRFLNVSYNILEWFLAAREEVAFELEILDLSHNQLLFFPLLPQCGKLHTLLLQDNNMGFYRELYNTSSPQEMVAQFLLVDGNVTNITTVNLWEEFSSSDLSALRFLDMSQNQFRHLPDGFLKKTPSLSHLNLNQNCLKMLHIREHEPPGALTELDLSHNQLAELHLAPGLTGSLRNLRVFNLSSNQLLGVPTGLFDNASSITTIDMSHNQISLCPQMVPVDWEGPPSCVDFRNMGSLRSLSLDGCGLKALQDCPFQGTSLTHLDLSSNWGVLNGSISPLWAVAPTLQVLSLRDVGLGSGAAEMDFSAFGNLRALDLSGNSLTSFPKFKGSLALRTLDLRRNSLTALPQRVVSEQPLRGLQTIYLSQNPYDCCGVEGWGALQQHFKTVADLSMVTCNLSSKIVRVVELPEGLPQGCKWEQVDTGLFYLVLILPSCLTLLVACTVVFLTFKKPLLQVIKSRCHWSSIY

The target of test [3] is T1, NRROS^nFlag overexpressed in HEK293T cells (mouse). This is another data set of the same source.
The target is the same in test [4]. This is another data set of the same source.

With “Bip (HEK293T) (from UniProt P11021 19-654)”, the binding result in test [1] is “binds”. Regarding “TGFβ1^HA (mouse TGFβ1 with HA tag at the C-terminus) (from UniProt P04202 30-390)”, the binding result in test [1] is recorded as “binds”. In the case of “UGGT1 (HEK293T) (from UniProt Q9NYU2 43-1555)”, the binding entry in test [1] was “binds”. As for “CHIP (HEK293T) (from UniProt Q9UNE7 1-303)”, in test [1], the binding entry is on record as “no binding”.

B1: calnexin (endogenous, RAW 264.7) (protein, UniProt P35564 21-591)
chain: HDGHDDDAIDIEDDLDDVIEEVEDSKSKSDASTPPSPKVTYKAPVPTGEVYFADSFDRGSLSGWILSKAKKDDTDDEIAKYDGKWEVDEMKETKLPGDKGLVLMSRAKHHAISAKLNKPFLFDTKPLIVQYEVNFQNGIECGGAYVKLLSKTAELSLDQFHDKTPYTIMFGPDKCGEDYKLHFIFRHKNPKTGVYEEKHAKRPDADLKTYFTDKKTHLYTLILNPDNSFEILVDQSVVNSGNLLNDMTPPVNPSREIEDPEDRKPEDWDERPKIADPDAVKPDDWDEDAPSKIPDEEATKPEGWLDDEPEYIPDPDAEKPEDWDEDMDGEWEAPQIANPKCESAPGCGVWQRPMIDNPNYKGKWKPPMIDNPNYQGIWKPRKIPNPDFFEDLEPFKMTPFSAIGLELWSMTSDIFFDNFIISGDRRVVDDWANDGWGLKKAADGAAEPGVVLQMLEAAEERPWLWVVYILTVALPVFLVILFCCSGKKQSNAMEYKKTDAPQPDVKDEEGKEEEKNKRDEEEEEEKLEEKQKSDAEEDGVTGSQDEEDSKPKAEEDEILNRSPRNRKPRRE
For B1, the binding result in test [2] is “binds”.

B2: EDEM1 (ER degradation-enhancing alpha-mannosidase-like protein 1) in HEK293T cells (protein, UniProt Q92611 1-657)
chain: MQWRALVLGLVLLRLGLHGVLWLVFGLGPSMGFYQRFPLSFGFQRLRSPDGPASPTSGPVGRPGGVSGPSWLQPPGTGAAQSPRKAPRRPGPGMCGPANWGYVLGGRGRGPDEYEKRYSGAFPPQLRAQMRDLARGMFVFGYDNYMAHAFPQDELNPIHCRGRGPDRGDPSNLNINDVLGNYSLTLVDALDTLAIMGNSSEFQKAVKLVINTVSFDKDSTVQVFEATIRVLGSLLSAHRIITDSKQPFGDMTIKDYDNELLYMAHDLAVRLLPAFENTKTGIPYPRVNLKTGVPPDTNNETCTAGAGSLLVEFGILSRLLGDSTFEWVARRAVKALWNLRSNDTGLLGNVVNIQTGHWVGKQSGLGAGLDSFYEYLLKSYILFGEKEDLEMFNAAYQSIQNYLRRGREACNEGEGDPPLYVNVNMFSGQLMNTWIDSLQAFFPGLQVLIGDVEDAICLHAFYYAIWKRYGALPERYNWQLQAPDVLFYPLRPELVESTYLLYQATKNPFYLHVGMDILQSLEKYTKVKCGYATLHHVIDKSTEDRMESFFLSETCKYLYLLFDEDNPVHKSGTRYMFTTEGHIVSVDEHLRELPWKEFFSEEGGQDQGGKSVHRPKPHELKVINSSSNCNRVPDERRYSLPLKSIYMRQIDQMVGLI
Consider B2, for which, in test [3], the binding entry is “binds”.

B3: NOX2 (gp91^phox) overexpressed in HEK293T cells (protein, UniProt Q61093 1-570)
chain: MGNWAVNEGLSIFVILVWLGLNVFLFINYYKVYDDGPKYNYTRKLLGSALALARAPAACLNFNCMLILLPVCRNLLSFLRGSSACCSTRIRRQLDRNLTFHKMVAWMIALHTAIHTIAHLFNVEWCVNARVGISDRYSIALSDIGDNENEEYLNFAREKIKNPEGGLYVAVTRLAGITGIVITLCLILIITSSTKTIRRSYFEVFWYTHHLFVIFFIGLAIHGAERIVRGQTAESLEEHNLDICADKIEEWGKIKECPVPKFAGNPPMTWKWIVGPMFLYLCERLVRFWRSQQKVVITKVVTHPFKTIELQMKKKGFKMEVGQYIFVKCPKVSKLEWHPFTLTSAPEEDFFSIHIRIVGDWTEGLFNACGCDKQEFQDAWKLPKIAVDGPFGTASEDVFSYEVVMLVGAGIGVTPFASILKSVWYKYCDNATSLKLKKIYFYWLCRDTHAFEWFADLLQLLETQMQERNNANFLSYNIYLTGWDESQANHFAVHHDEEKDVITGLKQKTLYGRPNWDNEFKTIASEHPNTTIGVFLCGPEALAETLSKQSISNSESGPRGVHFIFNKENF
B3: in test [4], the binding result was “binds”.

B4: calnexin (HEK293T) (protein, UniProt P27824 21-592)
chain: HDGHDDDVIDIEDDLDDVIEEVEDSKPDTTAPPSSPKVTYKAPVPTGEVYFADSFDRGTLSGWILSKAKKDDTDDEIAKYDGKWEVEEMKESKLPGDKGLVLMSRAKHHAISAKLNKPFLFDTKPLIVQYEVNFQNGIECGGAYVKLLSKTPELNLDQFHDKTPYTIMFGPDKCGEDYKLHFIFRHKNPKTGIYEEKHAKRPDADLKTYFTDKKTHLYTLILNPDNSFEILVDQSVVNSGNLLNDMTPPVNPSREIEDPEDRKPEDWDERPKIPDPEAVKPDDWDEDAPAKIPDEEATKPEGWLDDEPEYVPDPDAEKPEDWDEDMDGEWEAPQIANPRCESAPGCGVWQRPVIDNPNYKGKWKPPMIDNPSYQGIWKPRKIPNPDFFEDLEPFRMTPFSAIGLELWSMTSDIFFDNFIICADRRIVDDWANDGWGLKKAADGAAEPGVVGQMIEAAEERPWLWVVYILTVALPVFLVILFCCSGKKQTSGMEYKKTDAPQPDVKEEEEEKEEEKDKGDEEEEGEEKLEEKQKSDAEEDGGTVSQEEEDRKPKAEEDEILNRSPRNRKPRRE
For B4, the binding entry in test [3] and in test [4] was “binds” in each case.
